# Reference: the supplement of paper PMC8728848
# This is one part of the list.
# Columns and labels:
# Assay in all cases: glycan array binding signal (z-score within array); higher = stronger binding
# Details in all cases: glycan notation: IUPAC condensed, linker removed
# [1] = target: GlcNAc(b1-3)GalNAc
# Summary of the method: (§1)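 The binding signal is a Z-score computed within each array and averaged over linkers. Arrays of the same protein sequence at different concentrations or buffers were also averaged together. Data originate from 3228 arrays in the Consortium for Functional Glycomics database, kept only where the protein sequence was available.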
# [2] = target: GlcNAc(b1-3)Man
# Summary of the method: as §1
# [3] = target: GlcNAc(b1-3)[GlcNAc(b1-4)][GlcNAc(b1-6)]GlcNAc
# Summary of the method: as §1
# [4] = target: GlcNAc(b1-3)[GlcNAc(b1-6)]Gal(b1-4)GlcNAc
# Summary of the method: as §1
# [5] = target: GlcNAc(b1-3)[GlcNAc(b1-6)]GalNAc
# Summary of the method: as §1
# [6] = target: GlcNAc(b1-4)Gal(b1-4)GlcNAc
# Summary of the method: as §1
# [7] = target: GlcNAc(b1-4)GlcNAc
# Summary of the method: as §1
# [8] = target: GlcNAc(b1-4)GlcNAc(b1-4)GlcNAc
# Summary of the method: as §1
# [9] = target: GlcNAc(b1-4)GlcNAc(b1-4)GlcNAc(b1-4)GlcNAc(b1-4)GlcNAc
# Summary of the method: as §1
# [10] = target: GlcNAc(b1-4)GlcNAc(b1-4)GlcNAc(b1-4)GlcNAc(b1-4)GlcNAc(b1-4)GlcNAc
# Summary of the method: as §1
# [11] = target: GlcNAc(b1-4)[GlcNAc(b1-6)]GalNAc
# Summary of the method: as §1
# [12] = target: GlcNAc(b1-6)Gal(b1-4)GlcNAc
# Summary of the method: as §1
# [13] = target: GlcNAc(b1-6)GalNAc
# Summary of the method: as §1
# [14] = target: GlcNAc6S(b1-3)Gal(b1-4)GlcNAc
# Summary of the method: as §1
# [15] = target: Kdn(a2-3)Gal(b1-3)GalNAc
# Summary of the method: as §1
# [16] = target: Kdn(a2-3)Gal(b1-3)GlcNAc
# Summary of the method: as §1
# [17] = target: Kdn(a2-3)Gal(b1-4)Glc
# Summary of the method: as §1
# [18] = target: Kdn(a2-3)Gal(b1-4)GlcNAc
# Summary of the method: as §1
# [19] = target: Kdn(a2-3)Gal(b1-4)[Fuc(a1-3)]GlcNAc
# Summary of the method: as §1
# [20] = target: Kdn(a2-6)Gal(b1-4)GlcNAc
# Summary of the method: as §1
# [21] = target: Man(a1-2)Man(a1-2)Man(a1-3)Man
# Summary of the method: as §1
# [22] = target: Man(a1-2)Man(a1-2)Man(a1-6)[Man(a1-3)]Man
# Summary of the method: as §1
# [23] = target: Man(a1-2)Man(a1-3)Man
# Summary of the method: as §1
# [24] = target: Man(a1-2)Man(a1-3)[Man(a1-2)Man(a1-6)]Man
# Summary of the method: as §1
# [25] = target: Man(a1-2)Man(a1-3)[Man(a1-2)Man(a1-6)]Man(a1-6)[Man(a1-2)Man(a1-2)Man(a1-3)]Man
# Summary of the method: as §1
# [26] = target: Man(a1-2)Man(a1-3)[Man(a1-2)Man(a1-6)]Man(a1-6)[Man(a1-2)Man(a1-2)Man(a1-3)]Man(b1-4)GlcNAc(b1-4)GlcNAc
# Summary of the method: as §1
# [27] = target: Man(a1-2)Man(a1-3)[Man(a1-6)]Man(a1-6)[Man(a1-2)Man(a1-3)]Man(b1-4)GlcNAc(b1-4)GlcNAc
# Summary of the method: as §1
# [28] = target: Man(a1-2)Man(a1-6)[Man(a1-3)]Man(a1-6)[Man(a1-2)Man(a1-2)Man(a1-3)]Man
# Summary of the method: as §1
# [29] = target: Man(a1-2)Man(a1-6)[Man(a1-3)]Man(a1-6)[Man(a1-2)Man(a1-2)Man(a1-3)]Man(b1-4)GlcNAc(b1-4)GlcNAc
# Summary of the method: as §1
# [30] = target: Man(a1-3)[Man(a1-6)]Man
# Summary of the method: as §1
# [31] = target: Man(a1-3)[Man(a1-6)]Man(a1-6)[Man(a1-2)Man(a1-3)]Man(b1-4)GlcNAc(b1-4)GlcNAc
# Summary of the method: as §1
# [32] = target: Man(a1-3)[Man(a1-6)]Man(a1-6)[Man(a1-3)]Man
# Summary of the method: as §1
# [33] = target: Man(a1-3)[Man(a1-6)]Man(a1-6)[Man(a1-3)]Man(b1-4)GlcNAc(b1-4)GlcNAc
# Summary of the method: as §1
# [34] = target: Man(a1-3)[Man(a1-6)]Man(b1-4)GlcNAc(b1-4)GlcNAc
# Summary of the method: as §1
# [35] = target: Man(a1-3)[Man(a1-6)]Man(b1-4)GlcNAc(b1-4)[Fuc(a1-6)]GlcNAc
# Summary of the method: as §1
# [36] = target: Man(a1-6)Man
# Summary of the method: as §1
# [37] = target: Man(b1-4)GlcNAc
# Summary of the method: as §1
# [38] = target: MurNAc(b1-4)GlcNAc
# Summary of the method: as §1
binder,measurement,setting,value
SP15308C-bot-338-23-338 (Bacteroides ovatus) (protein) DEWTDEQFKQLISFKTQPGGWGVTDVHVRYANSAKYTYNLPVLVSGSTDNTDDRLVSFSLRDDTLDILNFEKFGNRPELYFRELPQKYYSFPKELTIPAGQSHALLPIEFSLDGLDDSQKWALPLKVCEDANGTYAVNPRKYYRTAVLRPILFNEFSGRFSGSSLLGTMAGESDIKFSSTEIKLNVVTDSIVFFYAGQRTEDYEDRINYKVFLQFTGDKVDSKKDLYKMKIWAENEKLKFNSYSTPTYKVSSEMDATKTYLKHTYIVISDIDFDFVDYTSVPNYEIEYNMKGGLSVSRDLDTRKPDEDQGSDSKWW,glycan array binding signal (z-score),[1],-0.138
same,glycan array binding signal (z-score),[2],-0.56
same,glycan array binding signal (z-score),[3],-0.055
same,glycan array binding signal (z-score),[4],-0.145
same,glycan array binding signal (z-score),[5],-0.487
same,glycan array binding signal (z-score),[6],-0.205
same,glycan array binding signal (z-score),[7],-0.453
same,glycan array binding signal (z-score),[8],-0.098
same,glycan array binding signal (z-score),[9],-0.666
same,glycan array binding signal (z-score),[10],-0.503
same,glycan array binding signal (z-score),[11],0.064
same,glycan array binding signal (z-score),[12],-0.182
same,glycan array binding signal (z-score),[13],-0.218
same,glycan array binding signal (z-score),[14],-0.422
same,glycan array binding signal (z-score),[15],-0.034
same,glycan array binding signal (z-score),[16],0.04
same,glycan array binding signal (z-score),[17],-0.488
same,glycan array binding signal (z-score),[18],0.112
same,glycan array binding signal (z-score),[19],-0.494
same,glycan array binding signal (z-score),[20],-0.233
same,glycan array binding signal (z-score),[21],0.082
same,glycan array binding signal (z-score),[22],-0.484
same,glycan array binding signal (z-score),[23],0.722
same,glycan array binding signal (z-score),[24],-0.446
same,glycan array binding signal (z-score),[25],0.121
same,glycan array binding signal (z-score),[26],0.032
same,glycan array binding signal (z-score),[27],-0.813
same,glycan array binding signal (z-score),[28],-0.109
same,glycan array binding signal (z-score),[29],-0.179
same,glycan array binding signal (z-score),[30],0.033
same,glycan array binding signal (z-score),[31],1.29
same,glycan array binding signal (z-score),[32],0.294
same,glycan array binding signal (z-score),[33],0.16
same,glycan array binding signal (z-score),[34],-0.277
same,glycan array binding signal (z-score),[35],0.051
same,glycan array binding signal (z-score),[36],-0.507
same,glycan array binding signal (z-score),[37],-0.86
same,glycan array binding signal (z-score),[38],-0.64
